Source: the supplement of paper PMC9938546
Counter-ions that a name gives are not always drawn. The list shows a part of the results. Plates or batches differ in their baseline, so values are only roughly comparable.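 HCT116-GFP is a human colorectal cancer cell line that carries a KRAS mutation, is microsatellite-unstable and always makes green fluorescent protein; the immune cells came from healthy donors. Live-cell imaging of the green signal stood in for cancer cell survival, and activated immune cells alone cut survival to about half.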

Each molecule was assayed on HCT116-GFP (assay: HCT116-GFP viability (GFP intensity) relative to untreated HCT116-GFP monoculture control, co-culture with activated PBMCs; higher = less cancer cell killing). Conditions: culture: co-culture with anti-CD3/IL2 activated PBMCs 1:1; 10 µM; 72 h.

| SMILES | HCT116-GFP viability [%] |
| --- | --- |
| CCN1CCCC1CNC(=O)c1cc(S(=O)(=O)CC)c(N)cc1OC (stereo not drawn) [Amisulpride] | 46.5 |
| CC(C)[C@H]1CC[C@H](C(=O)N[C@H](Cc2ccccc2)C(=O)O)CC1 [Nateglinide] | 29.8 |
| COc1ccccc1OCCNCC(O)COc1cccc2[nH]c3ccccc3c12 (stereo not drawn) [Carvedilol] | 55.8 |
| CC(C)c1nc(CN(C)C(=O)N[C@H](C(=O)N[C@@H](Cc2ccccc2)C[C@H](O)[C@H](Cc2ccccc2)NC(=O)OCc2cncs2)C(C)C)cs1 [Ritonavir] | 41.3 |
| CC1CCc2cc(F)cc3c(=O)c(C(=O)O)cn1c23 (stereo not drawn) [Flumequine] | 36.2 |
| O=C(NCC1CCCCN1)c1cc(OCC(F)(F)F)ccc1OCC(F)(F)F (stereo not drawn) [Flecainide acetate] | 74.6 |
| CCCCOc1ccc(OCCCN2CCOCC2)cc1 [Pramoxine hydrochloride] | 71.6 |
| CCOC(=O)C1=C(C)NC(C)=C(C(=O)OC)C1c1cccc([N+](=O)[O-])c1 (stereo not drawn) [Nitrendipine] | 64.8 |
| CCn1cc(C(=O)O)c(=O)c2cc(F)c(N3CCNCC3)cc21 [Norfloxacin] | 43.8 |
| O=C(c1ccc(OCCN2CCCCC2)cc1)c1c(-c2ccc(O)cc2)sc2cc(O)ccc12 [Raloxifene hydrochloride] | 75.8 |
| CC(CN1c2ccccc2Sc2ccccc21)N(C)C (stereo not drawn) [Promethazine hydrochloride] | 67.6 |
| NS(=O)(=O)c1cc2c(cc1C(F)(F)F)NC(Cc1ccccc1)NS2(=O)=O (stereo not drawn) [Bendroflumethiazide] | 75.3 |
| CN(C)CCCC1(c2ccc(F)cc2)OCc2cc(C#N)ccc21 (stereo not drawn) [Citalopram Hydrobromide] | 60.9 |
| CCCC(CCC)C(=O)O [Valproic acid] | 32.5 |
| O=C(O)CNC(=O)C(CS)Cc1ccccc1 (stereo not drawn) [Thiorphan] | 55.7 |
| Cc1onc(-c2ccccc2)c1C(=O)N[C@@H]1C(=O)N2[C@@H]1SC(C)(C)[C@@H]2C(=O)O [Oxacillin sodium] | 77 |
| CN(C)CCC(c1ccc(Cl)cc1)c1ccccn1 (stereo not drawn) [Chlorpheniramine maleate] | 42.2 |
| COc1cc(N)c(Cl)cc1C(=O)NC1CCN(CCCOc2ccc(F)cc2)CC1OC (stereo not drawn) [Cisapride] | 72.8 |
| COC1=CC(=O)C[C@@H](C)[C@]12Oc1c(Cl)c(OC)cc(OC)c1C2=O [Griseofulvin] | 10.4 |
| COC(=O)Nc1nc2cc(C(=O)c3ccc(F)cc3)ccc2[nH]1 [Flubendazol] | 7.7 |
| CC(C)(C)NC(=O)[C@@H]1CN(Cc2cccnc2)CCN1C[C@@H](O)C[C@@H](Cc1ccccc1)C(=O)N[C@H]1c2ccccc2C[C@H]1O [Indinavir sulfate] | 16.8 |
| O=C(O[C@@H]1C[C@@H]2C[C@H]3C[C@H](C1)N2CC3=O)c1c[nH]c2ccccc12 [Dolasetron mesilate] | 88.2 |
| CC(C)(C)NCC(O)c1ccc(O)c(CO)c1 (stereo not drawn) [Salbutamol] | 44 |
| Cc1c(OCC(F)(F)F)ccnc1C[S+]([O-])c1nc2ccccc2[nH]1 (stereo not drawn) [Lansoprazole] | 44.2 |
| Cn1c(=O)c2c(ncn2C)n(C)c1=O [Caffeine] | 37.1 |
| CCc1nn(CCCN2CCN(c3cccc(Cl)c3)CC2)c(=O)n1CCOc1ccccc1 [Nefazodone hydrochloride] | 58 |

2 successive entries from above, quoted:

| SMILES | HCT116-GFP viability [%] |
| --- | --- |
| CC(C)c1nc(CN(C)C(=O)N[C@H](C(=O)N[C@@H](Cc2ccccc2)C[C@H](O)[C@H](Cc2ccccc2)NC(=O)OCc2cncs2)C(C)C)cs1 [Ritonavir] | 41.3 |
| CC1CCc2cc(F)cc3c(=O)c(C(=O)O)cn1c23 (stereo not drawn) [Flumequine] | 36.2 |

The listing continues.

| SMILES | HCT116-GFP viability [%] |
| --- | --- |
| CCCNC(C)(C)COC(=O)c1ccccc1 [Meprylcaine hydrochloride] | 47.8 |
| CCC1(C)CC(=O)NC1=O (stereo not drawn) [Ethosuximide] | 37.2 |
| NC1CCN(c2c(F)cc3c(=O)c(C(=O)O)cn(C4CC4)c3c2Cl)C1 (stereo not drawn) [Clinafloxacin] | 76.8 |
| C[N+](C)(CCOc1ccccc1)Cc1ccccc1.O=C([O-])c1cc2ccccc2cc1O [Bephenium hydroxynaphthoate] | 83.3 |
| CC(NCCc1ccc(O)cc1)C(O)c1ccc(O)cc1 (stereo not drawn) [Ritodrine hydrochloride] | 48.4 |
| CCCc1nn(C)c2c(=O)[nH]c(-c3cc(S(=O)(=O)N4CCN(C)CC4)ccc3OCC)nc12 [Sildenafil] | 40.2 |
| CCC(C)(C)C(=O)O[C@H]1C[C@@H](C)C=C2C=C[C@H](C)[C@H](CC[C@@H]3C[C@@H](O)CC(=O)O3)[C@H]21 [Simvastatin] | 48.3 |
| CC(=O)Oc1ccc(C(c2ccc(OC(C)=O)cc2)c2ccccn2)cc1 [Bisacodyl] | 31.3 |
| Nc1ccc(C(=O)O)c(O)c1 [4-aminosalicylic acid] | 9.65 |
| O=C1Nc2ccc(Cl)cc2[C@@](C#CC2CC2)(C(F)(F)F)O1 [Efavirenz] | 47.3 |
| CC[N+](C)(CC)CCC[n+]1c(-c2ccccc2)c2cc(N)ccc2c2ccc(N)cc21 [Propidium iodide] | 62.7 |
| O=C(O)c1ccccc1Nc1cccc(C(F)(F)F)c1 [Flufenamic acid] | 58.7 |
| Clc1ccc(C(c2ccccc2Cl)C(Cl)Cl)cc1 (stereo not drawn) [Mitotane] | 24.1 |
| O=C1O[C@H]([C@@H](O)CO)C(O)=C1O [Ascorbic acid] | 53 |
| Nc1ccc(/N=N/c2ccccc2)c(N)n1 [Phenazopyridine hydrochloride] | 63.6 |
| CN(C)CCOC(=O)C(c1ccccc1)C1(O)CCCC1 (stereo not drawn) [Cyclopentolate hydrochloride] | 45.9 |
| CCC(=O)O[C@]1(C(=O)SCF)[C@H](C)C[C@H]2[C@@H]3C[C@H](F)C4=CC(=O)C=C[C@]4(C)[C@@]3(F)[C@@H](O)C[C@@]21C [Fluticasone propionate] | 66.9 |
| OCCN1CCN(CC/C=C2/c3ccccc3Sc3ccc(Cl)cc32)CC1 [Zuclopenthixol dihydrochloride] | 41.6 |
| Nc1nc(/C(=C/CC(=O)O)C(=O)N[C@@H]2C(=O)N3C(C(=O)O)=CCS[C@H]23)cs1 [Ceftibuten] | 32.5 |
| CCN(CC)CCNC(=O)c1cc(Br)c(N)cc1OC [Bromopride] | 79.7 |
| OC(CCN1CCCCC1)(c1ccccc1)c1ccccc1 [Pridinol methanesulfonate salt] | 79.2 |
| CCCCC(=O)N(Cc1ccc(-c2ccccc2-c2nnn[nH]2)cc1)[C@H](C(=O)O)C(C)C [Valsartan] | 33.8 |
| CC(C)NNC(=O)c1ccncc1 [Iproniazide phosphate] | 57.7 |
| O=C1c2cccc(O)c2C(=O)c2c(O)cccc21 [1,8-Dihydroxyanthraquinone] | 7.91 |
| O=C(O)CCC(=O)c1ccc(-c2ccccc2)cc1 [Fenbufen] | 31.6 |
| N[C@@H](Cc1ccc(O)c(O)c1)C(=O)O [Levodopa] | 46.3 |

| SMILES | HCT116-GFP viability [%] |
| --- | --- |
| CN1CCN2c3ccccc3Cc3ccccc3C2C1 (stereo not drawn) [Mianserine hydrochloride] | 32.3 |
| O=C(NC(Cc1cc(=O)[nH]c2ccccc12)C(=O)O)c1ccc(Cl)cc1 (stereo not drawn) [Rebamipide] | 79 |
| Nc1ncn(C2OC(CO)C(O)C2O)c(=O)n1 (stereo not drawn) [Azacytidine-5] | 31.9 |
| C[N+](C)(C)CCOC(N)=O [Carbachol] | 57.4 |
| CC(C)(C)NC[C@H](O)COc1cccc2c1CCCC2=O [(-) -Levobunolol hydrochloride] | 66 |
| C[C@H](CCC(=O)O)[C@H]1CC[C@H]2[C@@H]3C(=O)C[C@@H]4CC(=O)CC[C@]4(C)[C@H]3CC(=O)[C@]12C [Dehydrocholic acid] | 48.6 |
| CCOC(=O)C1=C(C)NC(C)=C(C(=O)OC)C1c1cccc(Cl)c1Cl (stereo not drawn) [Felodipine] | 38.8 |
| O=C1c2c(O)ccc(O)c2C(=O)c2c(NCCNCCO)ccc(NCCNCCO)c21 [Mitoxantrone dihydrochloride] | 1.4 |
| NNC(=O)c1ccncc1 [Isoniazid] | 37.2 |
| CC1(C)O[C@@H]2C[C@H]3[C@@H]4C[C@H](F)C5=CC(=O)CC[C@]5(C)[C@H]4[C@@H](O)C[C@]3(C)[C@]2(C(=O)CO)O1 [Flurandrenolide] | 91.1 |
| CCCCc1oc2ccccc2c1C(=O)c1cc(I)c(OCCN(CC)CC)c(I)c1 [Amiodarone hydrochloride] | 40.4 |
| O=C(O)c1cccnc1 [Niacin] | 67.2 |
| Cc1cccc(N(C)C(=S)Oc2ccc3ccccc3c2)c1 [Tolnaftate] | 62.1 |
| O=c1[nH]c(=O)n([C@H]2C[C@H](O)[C@@H](CO)O2)cc1I [Idoxuridine] | 24.6 |
| COc1ccc(-c2ccc3cc(C(=O)O)ccc3c2)cc1C12CC3CC(CC(C3)C1)C2 [Adapalene] | 3 |
| CCN1CCCC1CNC(=O)c1cc(S(N)(=O)=O)ccc1OC (stereo not drawn) [Sulpiride] | 47.9 |
| CC12CC3CC(C)(C1)CC(N)(C3)C2 [Memantine Hydrochloride] | 54.3 |
| C#C[C@]1(O)CC[C@H]2[C@@H]3CCC4=Cc5oncc5C[C@]4(C)[C@H]3CC[C@@]21C [Danazol] | 50.1 |
| CCOc1ccc(Cc2nccc3cc(OCC)c(OCC)cc23)cc1OCC [Ethaverine hydrochloride] | 35.2 |
| O=C(Nc1ccc([N+](=O)[O-])cc1Cl)c1cc(Cl)ccc1O [Niclosamide] | 2.33 |
| CN1CCCN=C1/C=C/c1cccs1 [Pyrantel tartrate] | 26.1 |
| CCN(CC)CCN[C@@H](C(=O)OCCC(C)C)c1ccccc1 [Camylofine chlorhydrate] | 37.8 |
| CCC[C@@H]1C[C@@H](C(=O)N[C@@H]([C@H]2O[C@H](SC)[C@H](O)[C@@H](O)[C@H]2O)[C@@H](C)O)N(C)C1 [Lincomycin hydrochloride] | 43.5 |
| CC(C)(C)NC(=O)[C@H]1CC[C@H]2[C@@H]3CC[C@H]4NC(=O)C=C[C@]4(C)[C@H]3CC[C@]12C [Finasteride] | 77 |
| Nc1nc(N)c2nc(-c3ccccc3)c(N)nc2n1 [Triamterene] | 41.8 |
| C=C1C(=O)O[C@H]2[C@H]1CC/C(C)=C/CC[C@@]1(C)O[C@@H]21 [Parthenolide] | 0.284 |

An excerpt of these results, as tab-separated lines.
SMILES	HCT116-GFP viability [%]
CC(C)(C)NC[C@H](O)COc1cccc2c1CCCC2=O [(-) -Levobunolol hydrochloride]	66
C[C@H](CCC(=O)O)[C@H]1CC[C@H]2[C@@H]3C(=O)C[C@@H]4CC(=O)CC[C@]4(C)[C@H]3CC(=O)[C@]12C [Dehydrocholic acid]	48.6
CCOC(=O)C1=C(C)NC(C)=C(C(=O)OC)C1c1cccc(Cl)c1Cl (stereo not drawn) [Felodipine]	38.8
O=C1c2c(O)ccc(O)c2C(=O)c2c(NCCNCCO)ccc(NCCNCCO)c21 [Mitoxantrone dihydrochloride]	1.4
NNC(=O)c1ccncc1 [Isoniazid]	37.2
CC1(C)O[C@@H]2C[C@H]3[C@@H]4C[C@H](F)C5=CC(=O)CC[C@]5(C)[C@H]4[C@@H](O)C[C@]3(C)[C@]2(C(=O)CO)O1 [Flurandrenolide]	91.1
CCCCc1oc2ccccc2c1C(=O)c1cc(I)c(OCCN(CC)CC)c(I)c1 [Amiodarone hydrochloride]	40.4
O=C(O)c1cccnc1 [Niacin]	67.2
Cc1cccc(N(C)C(=S)Oc2ccc3ccccc3c2)c1 [Tolnaftate]	62.1
O=c1[nH]c(=O)n([C@H]2C[C@H](O)[C@@H](CO)O2)cc1I [Idoxuridine]	24.6
COc1ccc(-c2ccc3cc(C(=O)O)ccc3c2)cc1C12CC3CC(CC(C3)C1)C2 [Adapalene]	3
CCN1CCCC1CNC(=O)c1cc(S(N)(=O)=O)ccc1OC (stereo not drawn) [Sulpiride]	47.9
CC12CC3CC(C)(C1)CC(N)(C3)C2 [Memantine Hydrochloride]	54.3
C#C[C@]1(O)CC[C@H]2[C@@H]3CCC4=Cc5oncc5C[C@]4(C)[C@H]3CC[C@@]21C [Danazol]	50.1
CCOc1ccc(Cc2nccc3cc(OCC)c(OCC)cc23)cc1OCC [Ethaverine hydrochloride]	35.2
O=C(Nc1ccc([N+](=O)[O-])cc1Cl)c1cc(Cl)ccc1O [Niclosamide]	2.33
CN1CCCN=C1/C=C/c1cccs1 [Pyrantel tartrate]	26.1
CCN(CC)CCN[C@@H](C(=O)OCCC(C)C)c1ccccc1 [Camylofine chlorhydrate]	37.8
CCC[C@@H]1C[C@@H](C(=O)N[C@@H]([C@H]2O[C@H](SC)[C@H](O)[C@@H](O)[C@H]2O)[C@@H](C)O)N(C)C1 [Lincomycin hydrochloride]	43.5
